In patent US20230310416A1, “SUSPENSION OF TRIAZOLE ANTIFUNGAL DRUG FOR ATOMIZER” (SHANGHAI FRONTIER HEALTH PHARMACEUTICAL TECHNOLOGY CO., LTD, priority 2020, published 2023):
At least one compound was matched to its structure with a doubt left.

System: bleomycin-induced idiopathic pulmonary fibrosis in mice
Assay: Mouse model of pulmonary fibrosis induced by bleomycin, inhalation versus oral administration
Assay type: in vivo, ICR mice
Description: In order to investigate the efficacy of itraconazole suspension of the present invention by inhalation administration, a mouse model of pulmonary fibrosis induced by bleomycin 2 mg/kg/mouse was established and compared with that by oral administration.
Test animals: ICR mice: SPF grade, body weight 22-24 g, male.
Test drugs: itraconazole suspension prepared in Example 3
Model establishment: 2 mg/kg of bleomycin hydrochloride for injection was sprayed into the respiratory tract of each mouse to induce pulmonary fibrosis, 4 weeks later, a mouse pulmonary fibrosis model was established.
Animal grouping: Mice were randomly divided into 4 groups, namely a blank control group, a model group, an itraconazole inhalation group, in which 2.5 mg/kg was inhaled for 3 minutes (2.5 mg/kg Inhalation group) and an itraconazole oral group, in which 15 mg/kg was orally administrated(15 mg/kg Oral group). The drugs were administered once a day for 22 consecutive days from the fifth day after modeling.
Detecting indexes: the mice were sacrificed after administration, the trachea was separated, the left lung was ligated, the bronchoalveolar lavage (BAL) was performed, the bronchoalveolar lavage fluid (BALF) was taken for white cell count and classification count, after the lung tissue was fixed with formalin, paraffin embedding, sectioning, H & E staining and Masson’s staining were carried out. The contents of transforming growth factor (TGF- β 1), mouse type I collagen (Col I) and hydroxyproline in lung tissue in supernatant of the BALF were detected by a kit.

CCC(C)n1ncn(-c2ccc(N3CCN(c4ccc(OCC5COC(Cn6cncn6)(c6ccc(Cl)cc6Cl)O5)cc4)CC3)cc2)c1=O (stereo not drawn) [itraconazole]
Contents of TGF-β1 and Col I in BALF and content of hydroxyproline in lung tissue (2.5 mg/kg Inhalation group): decrease | Inflammatory cell infiltration and collagen formation in lung tissue (2.5 mg/kg Inhalation group): obviously reduce | Efficacy by inhalation administration compared with oral administration (2.5 mg/kg inhalation versus 15 mg/kg oral): obviously better than that by oral administration
